No constants are given. Whether binding was seen depends on the method and setting. Binding seen in cells or lysates may run through a third protein. For part of these data: Binding can be weak; no strength is given. Blank lines part the entries; values can stand above or below the binder they belong to.
Legend:
[1] = molecular target: Yotiao (mouse (endogenous in heart)); experiment: co-IP; IP-AC assay: WT or AC9-/- mouse heart extracts (also SAN, LV, RA homogenates) immunoprecipitated with anti-Yotiao or anti-Hsp20 (pre-immune or IgG control); associated AC activity stimulated with 300 nM Gαs and measured
[2] = molecular target: Yotiao (mouse (endogenous in heart)); experiment: co-IP; WT and AC9-/- mouse heart extracts immunoprecipitated with pre-immune or anti-Yotiao, western blot with anti-AC9
[3] = molecular target: Yotiao (mouse (endogenous in heart)); experiment: co-IP; mouse heart; Supplemental Fig. S4; which protein was precipitated is not given

- binding [1]: binds
- binding [2]: binds
B1: Adenylyl cyclase type 9 (enzyme, UniProt P51830 1-1353)
chain: MASSPHQQLLHHHSTEVSCDSSGDSNSVRVKINPKQLSSNTHPKHCKYSISSSCSSSGDSGGLPRRVGGGGRLRRQKKLPQLFERASSRWWDPKFDSMNLEEACLERCFPQTQRRFRYALFYVGFACLLWSIYFAVHMKSKVIVMVVPALCFLVVCVGFFLFTFTKLYARHYAWTSLALTLLVFALTLAAQFQVWTPLSGRVDSSNHTLTATPADTCLSQVGSFSICIEVLLLLYTVMQLPLYLSLFLGVVYSVLFETFGYHFRNEDCYPSPGPGALHWELLSRALLHVCIHAIGIHLFVMSQVRSRSTFLKVGQSIMHGKDLEVEKALKERMIHSVMPRIIADDLMKQGDEESENSVKRHATSSPKNRKKKSSIQKAPIAFRPFKMQQIEEVSILFADIVGFTKMSANKSAHALVGLLNDLFGRFDRLCEQTKCEKISTLGDCYYCVAGCPEPRADHAYCCIEMGLGMIKAIEQFCQEKKEMVNMRVGVHTGTVLCGILGMRRFKFDVWSNDVNLANLMEQLGVAGKVHISEATAKYLDDRYEMEDGRVIERLGQSVVADQLKGLKTYLISGQRAKESHCSCAEALLSGFEVIDDSRESSGPRGQGTASPGSVSDLAQTVKTFDNLKTCPSCGITFAPKSEAGAEGGTVQNGCQDEPKTSTKASGGPNSKTQNGLLSPPAEEKLTNSQTSLCEILQEKGRWAGVSLDQSALLPLRFKNIREKTDAHFVDVIKEDSLMKDYFFKPPINQFSLNFLDQELERSYRTSYQEEVIKNSPVKTFASATFSSLLDVFLSTTVFLILSITCFLKYGATATPPPPAALAVFGADLLLEVLSLIVSIRMVFFLEDVMTCTKWLLEWIAGWLPRHCIGAILVSLPALAVYSHITSEFETNIHVTMFTGSAVLVAVVHYCNFCQLSSWMRSSLATIVGAGLLLLLHISLCQDSSIVMSPLDSAQNFSAQRNPCNSSVLQDGRRPASLIGKELILTFFLLLLLVWFLNREFEVSYRLHYHGDVEADLHRTKIQSMRDQADWLLRNIIPYHVAEQLKVSQTYSKNHDSGGVIFASIVNFSEFYEENYEGGKECYRVLNELIGDFDELLSKPDYNSIEKIKTIGATYMAASGLNTAQCQEGGHPQEHLRILFEFAKEMMRVVDDFNNNMLWFNFKLRVGFNHGPLTAGVIGTTKLLYDIWGDTVNIASRMDTTGVECRIQVSEESYRVLSKMGYDFDYRGTVNVKGKGQMKTYLYPKCTDNGVVPQHQLSISPDIRVQVDGSIGRSPTDEIANLVPSVQYSDKASLGSDDSTQAKEARLSSKRSWREPVKAEERFPFGKAIEKDSCEDIGVEEASELSKLNVSKSV

- binding [3]: no binding
B2: heat shock protein 20 (protein, UniProt Q5EBG6 1-162)
chain: MEIPVPVQPSWLRRASAPLPGFSAPGRLFDQRFGEGLLEAELASLCPAAIAPYYLRAPSVALPTAQVSTDSGYFSVLLDVKHFLPEEISVKVVDDHVEVHARHEERPDEHGFIAREFHRRYRLPPGVDPAAVTSALSPEGVLSIQATPASAQAQLPSPPAAK

Reference: PMC5514062
